Literature values in patent US8084444B2, “Treatment of dermatitis with dehydroepiandrosterone-glucocorticoid combinations” (RxDino, LLC, priority 2004, dated 2011).
At least one structure is not confirmed: it was looked up by name or label, or the drawing left a doubt.

Conditions: equivalent in glucocorticoid potency

Structure (SMILES) | Approximate Glucocorticoid Dose Equivalent [mg]
C[C@H]1C[C@H]2[C@@H]3CCC4=CC(=O)C=C[C@]4(C)[C@@]3(F)[C@@H](O)C[C@]2(C)[C@@]1(O)C(=O)CO [Betamethasone] | ~0.7
C[C@H]1C[C@@H]2[C@H]([C@@H](O)C[C@@]3(C)[C@H]2CC[C@]3(O)C(=O)CO)[C@@]2(C)C=CC(=O)C=C12 [Methylprednisolone] | ~4
C[C@@H]1C[C@H]2[C@@H]3CCC4=CC(=O)C=C[C@]4(C)[C@@]3(F)[C@@H](O)C[C@]2(C)[C@@]1(O)C(=O)CO [Dexamethasone] | ~0.75
